These results are taken from publication PMC10952133, “Phytocystatin 6 is a context‐dependent, tight‐binding inhibitor of Arabidopsis thaliana legumain isoform β” (The Plant Journal, 2023).

Sequences of proteins named here, by UniProt entry; tags and fusion partners are left off. A change or cut given only in a name is not applied to a line headed by its entry.
UniProt Q8VYS0: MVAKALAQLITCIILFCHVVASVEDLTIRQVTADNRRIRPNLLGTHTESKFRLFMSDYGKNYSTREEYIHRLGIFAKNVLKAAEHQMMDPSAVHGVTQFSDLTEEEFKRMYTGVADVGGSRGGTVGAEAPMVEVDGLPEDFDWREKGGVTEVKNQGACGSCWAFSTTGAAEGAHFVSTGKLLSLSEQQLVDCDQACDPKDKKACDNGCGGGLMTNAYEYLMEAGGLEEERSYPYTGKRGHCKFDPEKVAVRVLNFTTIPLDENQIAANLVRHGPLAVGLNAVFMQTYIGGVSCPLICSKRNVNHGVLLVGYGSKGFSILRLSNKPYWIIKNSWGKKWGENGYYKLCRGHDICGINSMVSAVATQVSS

In experiment [1] the target is T1, N-terminal domain of AtCYT6 (AtCYT6-NTD, A35-D127) (Arabidopsis thaliana) (UniProt Q8H0X6).
T1 sequence: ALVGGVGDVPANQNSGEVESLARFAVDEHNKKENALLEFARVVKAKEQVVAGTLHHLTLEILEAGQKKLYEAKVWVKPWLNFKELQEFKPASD
Kind of experiment: affinity purification with mass spectrometry; CoIP with recombinant bait: anti-AtCYT6-NTD or anti-AtCYT6-CTD antibodies on protein G Sepharose loaded with recombinant AtCYT6-NTD or AtCYT6-CTD (bait 3), seed extract in 100 mM citric acid pH 5.5, 250 mM NaCl, 1 h at 4°C; label-free quantification against empty beads; only the target purified.

Experiment [2] addresses T2, endogenous Arabidopsis thaliana phytocystatin 6 (AtCYT6) (Arabidopsis thaliana (endogenous in leaves and seeds)) (UniProt Q8H0X6).
T2 sequence: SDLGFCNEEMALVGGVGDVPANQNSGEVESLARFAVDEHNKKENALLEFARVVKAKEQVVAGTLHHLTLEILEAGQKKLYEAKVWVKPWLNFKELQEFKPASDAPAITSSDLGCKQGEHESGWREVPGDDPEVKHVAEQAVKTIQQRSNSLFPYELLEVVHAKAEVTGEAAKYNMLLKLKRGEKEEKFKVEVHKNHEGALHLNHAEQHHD
Kind of experiment: affinity purification with mass spectrometry; CoIP of endogenous AtCYT6: polyclonal anti-AtCYT6-NTD or anti-AtCYT6-CTD antibodies cross-linked to protein G Sepharose (bait 2), seed extract in 100 mM citric acid pH 5.5, 250 mM NaCl, 1 h at 4°C; label-free quantification against empty beads.

Experiment [3] addresses T3, proAtLEGβ-C211A dead mutant (inactive proenzyme of AtLEGβ) (Arabidopsis thaliana) (UniProt Q39044).
T3 sequence: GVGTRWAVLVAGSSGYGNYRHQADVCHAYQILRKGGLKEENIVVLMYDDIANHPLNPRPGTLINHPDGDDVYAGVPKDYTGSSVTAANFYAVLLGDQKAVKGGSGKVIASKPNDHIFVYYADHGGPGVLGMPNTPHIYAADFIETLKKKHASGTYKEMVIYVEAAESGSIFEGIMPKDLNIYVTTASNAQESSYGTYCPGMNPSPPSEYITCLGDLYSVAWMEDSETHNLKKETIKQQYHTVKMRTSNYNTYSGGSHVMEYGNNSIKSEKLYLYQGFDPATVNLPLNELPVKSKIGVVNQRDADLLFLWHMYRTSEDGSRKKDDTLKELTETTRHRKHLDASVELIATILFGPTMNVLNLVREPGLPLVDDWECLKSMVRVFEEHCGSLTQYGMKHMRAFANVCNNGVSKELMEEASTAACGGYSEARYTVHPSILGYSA
As to the kind of experiment: affinity purification with mass spectrometry; pull-down: 2 mg VPE0 leaf lysate (100 mM MES pH 6.0, 100 mM NaCl, 250 mM sucrose, 1% Triton X-100) with His6-AtLEGβ (pre-inhibited with MMTS), His6-proAtLEGβ-C211A or lysate alone and Dynabeads for His-tag isolation, 1 h at room temperature; triplex dimethyl labelling; only the target purified.

Results are given in words; binding and its absence hold for the method and conditions named. In cells and extracts the contact can be indirect. These calls come from enrichment with a bait or labelling near it, and not all partners need be listed. For some assays here: A no says only that the protein was not detected with the bait.

For “RD19D (papain-like cysteine protease), endogenous in A. thaliana seeds (from UniProt Q8VYS0) (enzyme)”, the binding result in experiment [1] and in experiment [2] was “binds” each time.

B1: SAG12 (papain-like cysteine protease), endogenous in A. thaliana seeds (enzyme, UniProt Q9FJ47 26-346)
chain: RPLDNELIMQKRHIEWMTKHGRVYADVKEENNRYVVFKNNVERIEHLNSIPAGRTFKLAVNQFADLTNDEFRSMYTGFKGVSALSSQSQTKMSPFRYQNVSSGALPVSVDWRKKGAVTPIKNQGSCGCCWAFSAVAAIEGATQIKKGKLISLSEQQLVDCDTNDFGCEGGLMDTAFEHIKATGGLTTESNYPYKGEDATCNSKKTNPKATSITGYEDVPVNDEQALMKAVAHQPVSVGIEGGGFDFQFYSSGVFTGECTTYLDHAVTAIGYGESTNGSKYWIIKNSWGTKWGESGYMRIQKDVKDKQGLCGLAMKASYPTI
Turning to B1, the binding result in experiment [1] and in experiment [2] was “binds” throughout.

B2: endogenous Arabidopsis thaliana phytocystatin 6 (AtCYT6) (protein, UniProt Q8H0X6 25-234)
chain: T2 sequence
On to B2, for which the binding result in experiment [3] was “no binding”.
